The experiment has as its target APOBEC3G F126A-W127A (NTD mutant) (human) (UniProt Q9HC16). The experiment in a line: AFM imaging; 70 nM A3G incubated 10 min with linearized m13 ssDNA in 10 mM Tris, 2.5 mM NaCl; deposited on APTES coated mica, imaged in liquid; monomers per cluster on ssDNA from cluster volume; both purified.

Chains of the proteins cited; added tags and fusions are not shown. Lines headed by an entry give the natural chain unless they say otherwise; changes in a name come on top.
UniProt Q9HC16: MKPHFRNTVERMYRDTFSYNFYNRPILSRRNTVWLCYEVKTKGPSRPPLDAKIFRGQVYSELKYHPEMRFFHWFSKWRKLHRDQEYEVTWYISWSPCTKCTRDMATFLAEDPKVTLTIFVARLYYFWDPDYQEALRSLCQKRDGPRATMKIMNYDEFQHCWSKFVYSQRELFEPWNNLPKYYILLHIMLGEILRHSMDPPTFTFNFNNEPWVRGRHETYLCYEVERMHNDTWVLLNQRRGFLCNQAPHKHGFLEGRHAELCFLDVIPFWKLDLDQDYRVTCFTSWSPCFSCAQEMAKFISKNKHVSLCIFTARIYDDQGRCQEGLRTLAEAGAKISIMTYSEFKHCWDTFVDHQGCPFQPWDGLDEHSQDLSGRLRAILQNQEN

These are yes or no findings as the source states them, for the method shown. Some results given as binding are weak or reduced against the parent protein; the word gives no strength.

As for “APOBEC3G F126A-W127A (NTD mutant) (from UniProt Q9HC16 1-384) (enzyme)”, the binding result is recorded as “binds weakly”.

(Values after publication PMC5605669.)
